Entries after “also recorded” stand apart in the source; their conditions may differ. At least one structure is not confirmed: it was looked up by name or label, or the drawing left a doubt.
Columns and labels:
H. pylori = H. pylori growth kinetics in liquid media (optical density); type: cell-based, Helicobacter pylori; conditions: for effect on H. pylori growth (growth curve, OD): peptide added to liquid media at increasing concentrations, microaerophilic, up to 48 h
[1] = clinical diagnostic use; cited from earlier work

SMILES | final cell density at the stationary phase (H. pylori; gastrin added to growth media) | growth rate at the logarithmic phase (H. pylori; gastrin added to growth media) | lag time of H. pylori growth (H. pylori; gastrin added to growth media) | effect on H. pylori growth (growth curve, OD) (H. pylori) | time at which acid stimulation occurs [1] [min] | time of peak acid stimulation [1] [min]
CSCCC(NC(=O)C(Cc1c[nH]c2ccccc12)NC(=O)CNC(=O)C(Cc1ccc(O)cc1)NC(=O)C(C)NC(=O)C(CCC(=O)O)NC(=O)C(CCC(=O)O)NC(=O)C(CCC(=O)O)NC(=O)[C@H](CCC(=O)O)NC(=O)[C@H](CCC(=O)O)NC(=O)[C@H](CC(C)C)NC(=O)[C@H](Cc1c[nH]c2ccccc12)NC(=O)[C@@H]1CCCN1C(=O)CNC(=O)[C@@H](N)CCC(=O)O)C(=O)NC(CC(=O)O)C(=O)NC(Cc1ccccc1)C(N)=O (stereo in doubt) [gastrin, Gastrin 17] | increased the final cell density at the stationary phase | increased the growth rate at the logarithmic phase | shortened the lag time | significantly stimulated H. pylori growth in a dose-dependent manner; also recorded: dose-dependent effect on the growth curve |  | 
CSCC[C@H](NC(=O)[C@H](Cc1c[nH]c2ccccc12)NC(=O)CCNC(=O)OC(C)(C)C)C(=O)N[C@@H](CC(=O)O)C(=O)N[C@@H](Cc1ccccc1)C(N)=O [pentagastrin] |  |  |  | did not stimulate bacterial growth; also recorded: none of the peptides had an effect | ≤ 10 | 20 to 30
